Experimental data: the supplement of paper PMC10849652
This is one part of the list.

Amino acid sequences for entries named in this document (tags omitted). A change or cut given only in a name is not applied to a line headed by its entry.
UniProt Q8IXH7, whole entry, looked up: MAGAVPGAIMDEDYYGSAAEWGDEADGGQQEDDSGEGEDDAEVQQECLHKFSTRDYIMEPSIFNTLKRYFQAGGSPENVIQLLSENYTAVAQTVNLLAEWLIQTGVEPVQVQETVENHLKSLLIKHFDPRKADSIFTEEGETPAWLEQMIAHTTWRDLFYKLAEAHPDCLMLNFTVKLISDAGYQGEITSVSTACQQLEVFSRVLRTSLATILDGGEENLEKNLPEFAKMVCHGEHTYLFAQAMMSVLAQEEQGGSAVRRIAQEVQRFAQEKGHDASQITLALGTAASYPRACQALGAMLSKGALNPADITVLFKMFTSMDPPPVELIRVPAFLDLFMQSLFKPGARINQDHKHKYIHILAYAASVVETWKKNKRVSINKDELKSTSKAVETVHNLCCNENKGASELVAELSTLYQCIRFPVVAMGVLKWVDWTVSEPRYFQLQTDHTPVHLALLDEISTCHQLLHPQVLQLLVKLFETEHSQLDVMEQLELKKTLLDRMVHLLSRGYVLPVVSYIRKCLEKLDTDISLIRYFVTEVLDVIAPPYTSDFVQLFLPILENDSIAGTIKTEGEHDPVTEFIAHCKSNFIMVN
UniProt Q86YC3: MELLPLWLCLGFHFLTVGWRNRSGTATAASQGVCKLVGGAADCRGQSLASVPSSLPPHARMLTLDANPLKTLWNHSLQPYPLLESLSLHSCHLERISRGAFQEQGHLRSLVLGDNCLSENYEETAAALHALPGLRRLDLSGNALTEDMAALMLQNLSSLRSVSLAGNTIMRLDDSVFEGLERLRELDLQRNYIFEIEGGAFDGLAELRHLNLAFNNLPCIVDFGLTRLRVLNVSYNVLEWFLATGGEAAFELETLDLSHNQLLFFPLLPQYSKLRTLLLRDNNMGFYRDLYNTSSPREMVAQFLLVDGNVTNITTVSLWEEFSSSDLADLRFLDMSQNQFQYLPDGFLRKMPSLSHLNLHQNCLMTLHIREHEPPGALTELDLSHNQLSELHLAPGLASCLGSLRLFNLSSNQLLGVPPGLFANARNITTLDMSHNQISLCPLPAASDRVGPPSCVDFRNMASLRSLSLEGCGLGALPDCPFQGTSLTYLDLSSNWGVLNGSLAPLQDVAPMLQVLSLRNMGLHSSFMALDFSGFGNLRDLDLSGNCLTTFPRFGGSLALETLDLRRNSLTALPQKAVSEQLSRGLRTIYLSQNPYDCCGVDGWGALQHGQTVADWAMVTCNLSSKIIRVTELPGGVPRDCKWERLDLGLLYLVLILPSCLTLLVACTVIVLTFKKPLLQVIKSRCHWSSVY
UniProt Q9NPE3: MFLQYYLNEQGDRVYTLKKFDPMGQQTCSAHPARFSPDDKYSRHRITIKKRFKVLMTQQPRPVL
UniProt Q9UHC9: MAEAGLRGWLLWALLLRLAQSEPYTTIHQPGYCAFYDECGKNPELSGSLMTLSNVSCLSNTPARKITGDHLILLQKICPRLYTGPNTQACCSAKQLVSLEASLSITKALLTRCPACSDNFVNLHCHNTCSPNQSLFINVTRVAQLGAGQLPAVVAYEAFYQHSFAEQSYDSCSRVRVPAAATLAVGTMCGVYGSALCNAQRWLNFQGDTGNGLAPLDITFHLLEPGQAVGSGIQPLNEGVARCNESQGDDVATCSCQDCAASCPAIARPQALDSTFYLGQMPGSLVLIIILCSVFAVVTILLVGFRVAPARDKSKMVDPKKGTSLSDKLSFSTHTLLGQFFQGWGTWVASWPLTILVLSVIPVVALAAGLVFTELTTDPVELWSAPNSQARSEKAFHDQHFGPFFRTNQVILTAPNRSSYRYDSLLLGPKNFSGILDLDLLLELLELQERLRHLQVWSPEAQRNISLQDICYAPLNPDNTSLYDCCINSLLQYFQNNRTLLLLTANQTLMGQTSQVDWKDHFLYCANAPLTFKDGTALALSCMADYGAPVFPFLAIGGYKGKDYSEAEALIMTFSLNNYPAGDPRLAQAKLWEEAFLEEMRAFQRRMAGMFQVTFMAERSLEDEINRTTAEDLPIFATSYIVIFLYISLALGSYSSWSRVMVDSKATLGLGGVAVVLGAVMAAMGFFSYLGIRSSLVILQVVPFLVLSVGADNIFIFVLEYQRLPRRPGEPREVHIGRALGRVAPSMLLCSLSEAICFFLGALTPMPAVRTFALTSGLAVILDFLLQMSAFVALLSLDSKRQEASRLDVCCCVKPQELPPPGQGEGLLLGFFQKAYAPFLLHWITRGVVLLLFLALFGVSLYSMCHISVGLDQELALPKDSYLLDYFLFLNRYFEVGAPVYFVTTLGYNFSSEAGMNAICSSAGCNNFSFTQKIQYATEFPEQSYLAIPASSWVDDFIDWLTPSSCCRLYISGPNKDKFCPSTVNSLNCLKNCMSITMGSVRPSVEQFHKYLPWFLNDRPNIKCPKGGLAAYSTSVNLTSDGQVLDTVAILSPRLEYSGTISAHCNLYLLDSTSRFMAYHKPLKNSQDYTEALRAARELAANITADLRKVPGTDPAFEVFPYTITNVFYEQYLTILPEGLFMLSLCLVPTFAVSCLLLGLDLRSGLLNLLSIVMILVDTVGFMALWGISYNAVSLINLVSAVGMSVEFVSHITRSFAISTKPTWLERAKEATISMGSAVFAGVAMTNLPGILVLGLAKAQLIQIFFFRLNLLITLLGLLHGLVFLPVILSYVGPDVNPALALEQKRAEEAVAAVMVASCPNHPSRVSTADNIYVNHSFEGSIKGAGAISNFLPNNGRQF
UniProt O00746: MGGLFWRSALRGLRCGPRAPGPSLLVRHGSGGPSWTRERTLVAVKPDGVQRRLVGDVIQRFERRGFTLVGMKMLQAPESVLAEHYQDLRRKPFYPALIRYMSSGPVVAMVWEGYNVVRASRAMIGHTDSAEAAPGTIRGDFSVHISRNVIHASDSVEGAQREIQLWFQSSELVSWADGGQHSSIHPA
UniProt Q96L73: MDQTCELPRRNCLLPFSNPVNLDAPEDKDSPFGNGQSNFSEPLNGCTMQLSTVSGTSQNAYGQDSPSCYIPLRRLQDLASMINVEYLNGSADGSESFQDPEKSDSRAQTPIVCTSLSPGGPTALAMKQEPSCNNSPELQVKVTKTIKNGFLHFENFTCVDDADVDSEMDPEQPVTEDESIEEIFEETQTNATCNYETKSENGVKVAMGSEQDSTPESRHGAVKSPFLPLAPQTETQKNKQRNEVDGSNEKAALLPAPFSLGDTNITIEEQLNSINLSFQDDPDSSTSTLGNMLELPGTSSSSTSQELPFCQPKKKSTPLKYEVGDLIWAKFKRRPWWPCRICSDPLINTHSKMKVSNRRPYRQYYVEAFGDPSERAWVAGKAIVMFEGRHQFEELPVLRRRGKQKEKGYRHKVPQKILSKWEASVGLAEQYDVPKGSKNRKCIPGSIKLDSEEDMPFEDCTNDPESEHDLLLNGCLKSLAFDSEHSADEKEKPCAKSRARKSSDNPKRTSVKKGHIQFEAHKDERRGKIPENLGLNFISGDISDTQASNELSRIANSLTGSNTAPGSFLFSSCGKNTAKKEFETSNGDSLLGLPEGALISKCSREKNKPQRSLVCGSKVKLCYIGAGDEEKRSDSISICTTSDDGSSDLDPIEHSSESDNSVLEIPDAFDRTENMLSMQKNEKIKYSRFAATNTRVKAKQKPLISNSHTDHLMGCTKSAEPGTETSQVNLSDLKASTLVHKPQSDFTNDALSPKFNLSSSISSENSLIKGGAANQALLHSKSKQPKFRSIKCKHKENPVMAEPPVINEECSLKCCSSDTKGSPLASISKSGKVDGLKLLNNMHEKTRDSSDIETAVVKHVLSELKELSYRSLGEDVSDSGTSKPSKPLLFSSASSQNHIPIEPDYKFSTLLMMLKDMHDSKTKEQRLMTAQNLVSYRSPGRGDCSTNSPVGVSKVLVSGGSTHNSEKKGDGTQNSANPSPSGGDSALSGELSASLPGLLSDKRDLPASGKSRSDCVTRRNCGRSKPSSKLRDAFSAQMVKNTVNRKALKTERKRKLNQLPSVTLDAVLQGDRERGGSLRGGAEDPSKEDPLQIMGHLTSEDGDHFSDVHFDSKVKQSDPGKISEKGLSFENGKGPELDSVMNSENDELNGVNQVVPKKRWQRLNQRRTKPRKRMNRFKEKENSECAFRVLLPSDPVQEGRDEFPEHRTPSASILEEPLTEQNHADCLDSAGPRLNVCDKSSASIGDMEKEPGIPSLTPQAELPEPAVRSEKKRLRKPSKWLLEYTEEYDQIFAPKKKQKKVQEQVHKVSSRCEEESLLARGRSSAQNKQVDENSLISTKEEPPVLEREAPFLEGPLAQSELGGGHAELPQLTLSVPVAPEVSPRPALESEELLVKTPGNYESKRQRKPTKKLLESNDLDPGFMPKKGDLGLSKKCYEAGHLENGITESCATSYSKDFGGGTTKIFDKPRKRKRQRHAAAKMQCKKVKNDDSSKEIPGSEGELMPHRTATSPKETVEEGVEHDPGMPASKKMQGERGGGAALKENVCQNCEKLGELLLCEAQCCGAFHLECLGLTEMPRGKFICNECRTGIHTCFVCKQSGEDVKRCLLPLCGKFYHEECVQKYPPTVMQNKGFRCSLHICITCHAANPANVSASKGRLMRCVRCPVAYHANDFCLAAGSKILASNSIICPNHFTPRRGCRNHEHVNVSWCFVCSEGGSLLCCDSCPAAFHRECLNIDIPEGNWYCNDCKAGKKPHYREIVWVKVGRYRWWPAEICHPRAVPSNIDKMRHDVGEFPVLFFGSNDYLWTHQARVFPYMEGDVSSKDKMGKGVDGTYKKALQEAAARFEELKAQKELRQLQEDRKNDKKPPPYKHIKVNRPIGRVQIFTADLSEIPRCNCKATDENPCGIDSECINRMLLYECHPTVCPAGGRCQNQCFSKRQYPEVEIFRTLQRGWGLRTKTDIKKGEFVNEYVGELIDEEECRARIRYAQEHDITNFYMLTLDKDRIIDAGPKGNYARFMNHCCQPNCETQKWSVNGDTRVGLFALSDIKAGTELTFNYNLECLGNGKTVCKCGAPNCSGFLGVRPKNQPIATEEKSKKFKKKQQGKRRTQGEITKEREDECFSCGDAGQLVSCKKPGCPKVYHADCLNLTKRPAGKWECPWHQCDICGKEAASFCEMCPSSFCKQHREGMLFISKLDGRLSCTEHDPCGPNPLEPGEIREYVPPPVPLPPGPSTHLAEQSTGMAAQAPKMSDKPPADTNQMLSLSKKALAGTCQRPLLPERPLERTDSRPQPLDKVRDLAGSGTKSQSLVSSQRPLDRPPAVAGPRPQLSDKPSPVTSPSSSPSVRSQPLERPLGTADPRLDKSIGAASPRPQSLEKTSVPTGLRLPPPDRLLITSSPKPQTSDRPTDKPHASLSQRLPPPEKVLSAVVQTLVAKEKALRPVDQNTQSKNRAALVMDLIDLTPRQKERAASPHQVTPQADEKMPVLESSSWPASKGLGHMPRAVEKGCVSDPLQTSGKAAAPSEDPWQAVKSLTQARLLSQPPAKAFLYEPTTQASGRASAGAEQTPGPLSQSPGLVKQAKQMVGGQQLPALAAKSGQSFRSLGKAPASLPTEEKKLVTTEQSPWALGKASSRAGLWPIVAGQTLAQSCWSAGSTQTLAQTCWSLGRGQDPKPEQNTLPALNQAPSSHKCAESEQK
UniProt O95644: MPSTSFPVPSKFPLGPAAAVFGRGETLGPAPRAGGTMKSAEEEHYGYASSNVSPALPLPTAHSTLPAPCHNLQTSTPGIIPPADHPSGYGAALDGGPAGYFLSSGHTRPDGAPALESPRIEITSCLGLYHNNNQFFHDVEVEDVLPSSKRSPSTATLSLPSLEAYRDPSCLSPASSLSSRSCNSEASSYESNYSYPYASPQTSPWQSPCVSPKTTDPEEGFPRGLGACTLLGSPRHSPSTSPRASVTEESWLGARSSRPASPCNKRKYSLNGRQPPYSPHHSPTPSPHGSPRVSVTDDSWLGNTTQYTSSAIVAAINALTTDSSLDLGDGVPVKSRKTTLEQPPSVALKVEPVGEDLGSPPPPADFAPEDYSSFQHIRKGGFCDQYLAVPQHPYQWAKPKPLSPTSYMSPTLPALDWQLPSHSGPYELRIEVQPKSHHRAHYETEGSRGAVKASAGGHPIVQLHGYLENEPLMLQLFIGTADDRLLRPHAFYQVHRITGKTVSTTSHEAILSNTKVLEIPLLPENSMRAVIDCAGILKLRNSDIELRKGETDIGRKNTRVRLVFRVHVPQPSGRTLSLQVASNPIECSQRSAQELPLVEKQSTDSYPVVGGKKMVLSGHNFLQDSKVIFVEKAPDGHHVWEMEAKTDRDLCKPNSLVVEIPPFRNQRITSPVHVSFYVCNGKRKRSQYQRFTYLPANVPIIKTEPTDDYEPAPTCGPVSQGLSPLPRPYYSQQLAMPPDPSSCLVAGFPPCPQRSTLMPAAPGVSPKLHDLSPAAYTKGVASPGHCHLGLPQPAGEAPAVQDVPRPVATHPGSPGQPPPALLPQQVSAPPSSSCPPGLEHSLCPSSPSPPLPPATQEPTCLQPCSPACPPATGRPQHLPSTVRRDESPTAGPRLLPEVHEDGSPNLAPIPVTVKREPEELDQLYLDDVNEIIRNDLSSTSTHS

Legend:
Assay in all cases: log2 fold change, soluble protein after heating vs DMSO (PISA); higher = thermal stabilisation; K562 cells, 10 uM, 30 min; active = over 0.2 and 3.5 SD of the protein, either way, in both replicates (recomputed)
crizotinib = compound: C[C@@H](Oc1cc(-c2cnn(C3CCNCC3)c2)cnc1N)c1c(Cl)ccc(F)c1Cl [crizotinib]
In short: (§1)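 Quantification of soluble protein used TMTpro 16plex LC-MS/MS, with channel sums equalised. Samples were the supernatant after 21,000xg for 90 min of pooled aliquots from K562 cells (2×10^6 cells/mL) treated with 10 μM compound for 30 min, heated for 3 min over 48°C-58°C, and extracted in PBS with 0.5% NP-40 at 4°C. Values, from duplicates, describe thermal stability against control samples on a log2 fold-change scale.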

[1] = compound: C[C@@H]1COCCN1C2=NC(=NC(=C2)C3(CC3)S(=O)(=O)C)C4=C5C=CNC5=CC=C4
In short: as §1

[2] = compound: C[C@H](C1=CC=C(C=C1)C(=O)NC2=C3C=CNC3=NC=C2)N
In short: as §1

gandotinib = compound: Cc1cc(Nc2cc(CN3CCOCC3)c3nc(C)c(Cc4ccc(Cl)cc4F)n3n2)n[nH]1 [gandotinib]
In short: as §1

[3] = compound: Cc1cc(SCc2sc(-c3ccc(C(F)(F)F)cc3)nc2C)ccc1OCC(=O)O
In short: as §1

doramapimod = compound: Cc1ccc(-n2nc(C(C)(C)C)cc2NC(=O)Nc2ccc(OCCN3CCOCC3)c3ccccc23)cc1 [doramapimod]
In short: as §1

bafetinib = compound: Cc1ccc(NC(=O)c2ccc(CN3CC[C@H](N(C)C)C3)c(C(F)(F)F)c2)cc1Nc1nccc(-c2cncnc2)n1 [bafetinib]
In short: as §1

[4] = compound: Cc1cccc(CC(=O)N2CCc3c2ccc(-c2cn(C)c4ncnc(N)c24)c3F)n1
In short: as §1

nilotinib = compound: Cc1cn(-c2cc(NC(=O)c3ccc(C)c(Nc4nccc(-c5cccnc5)n4)c3)cc(C(F)(F)F)c2)cn1 [nilotinib]
In short: as §1

[5] = compound: Cc1nc(Nc2n[nH]c3c2CN(C(=O)N[C@H](CN(C)C)c2ccccc2)C3(C)C)c2sccc2n1
In short: as §1

dasatinib = compound: Cc1nc(Nc2ncc(C(=O)Nc3c(C)cccc3Cl)s2)cc(N2CCN(CCO)CC2)n1 [dasatinib]
In short: as §1

[6] = compound: Cc1ncc(-c2ccnc(Nc3ccc(S(C)(=O)=O)cc3)n2)n1C(C)C
In short: as §1

[7] = compound: Cn1cc(-c2ccc3c(c2)CCN3C(=O)Cc2cccc(C(F)(F)F)c2)c2c(N)ncnc21
In short: as §1

tipifarnib = compound: Cn1cncc1[C@@](N)(c1ccc(Cl)cc1)c1ccc2c(c1)c(-c1cccc(Cl)c1)cc(=O)n2C [tipifarnib]
In short: as §1

duvelisib = compound: C[C@H](Nc1ncnc2nc[nH]c12)c1cc2cccc(Cl)c2c(=O)n1-c1ccccc1 [duvelisib]
In short: as §1

tozasertib = compound: Cc1cc(Nc2cc(N3CCN(C)CC3)nc(Sc3ccc(NC(=O)C4CC4)cc3)n2)n[nH]1 [tozasertib]
In short: as §1

mubritinib = compound: FC(F)(F)c1ccc(/C=C/c2nc(COc3ccc(CCCCn4ccnn4)cc3)co2)cc1 [mubritinib]
In short: as §1

[8] = compound: CS(=O)(=O)c1ccc(-c2cnc(N)c(C(=O)Nc3ccccc3)n2)cc1
In short: as §1

ispinesib = compound: Cc1ccc(C(=O)N(CCCN)[C@@H](c2nc3cc(Cl)ccc3c(=O)n2Cc2ccccc2)C(C)C)cc1 [ispinesib]
In short: as §1

[9] = compound: Cn1cc(-c2ccc3nnc(C(F)(F)c4ccc5ncccc5c4)n3n2)cn1
In short: as §1

Measured: log2 fold change

NELFCD (UniProt Q8IXH7)
inactive: crizotinib 0.349 | [1] 0.145 | [2] 0.006 | gandotinib -0.327 | [3] 0.249 | doramapimod 0.025 | bafetinib 0.116 | [4] -0.111 | nilotinib -0.233 | [5] -0.003 | dasatinib -0.158 | [6] 0.064 | [7] 0.061 | tipifarnib 0.035

NR3C1 isoform 3 (UniProt P04150)
inactive: crizotinib 0.138 | [1] 0.008 | [2] 0.084 | duvelisib 0.025 | tozasertib 0.09 | [3] -0.012 | doramapimod 0.075 | nilotinib 0.084 | [5] -0.009 | dasatinib -0.205 | [6] 0.025 | [7] 0.313 | tipifarnib -0.248 | mubritinib -0.156

NRM (UniProt Q8IXM6)
inactive: [8] -0.064 | [1] 0.234 | [2] -0.174 | gandotinib -0.232 | tozasertib 0.017 | bafetinib -0.016 | [4] -0.062 | nilotinib 0.013 | [5] -0.043 | [6] 0.043 | [7] 0.101 | tipifarnib 0 | mubritinib -0.02

NRROS (UniProt Q86YC3)
inactive: gandotinib 0.01 | [4] -0.121 | nilotinib -0.301 | [5] 0.02 | [6] 0.056 | tipifarnib 0.073

NSA2 (UniProt O95478)
inactive: [1] -0.234 | gandotinib -0.032 | bafetinib 0.209 | [4] 0

NIPBL (UniProt Q6KC79)
inactive: crizotinib -0.373 | [1] 0.188 | tozasertib 0 | doramapimod 0.101 | bafetinib -0.473 | tipifarnib 0.263

NOTCH2 (UniProt Q04721)
inactive: tozasertib -0.021 | bafetinib 0.18

NOP10 (UniProt Q9NPE3)
inactive: crizotinib -0.144 | [2] 0.061 | duvelisib 0 | [3] -0.111 | doramapimod 0.009 | ispinesib -0.016 | bafetinib 0.079 | nilotinib 0.028 | [5] 0.02 | dasatinib 0.084 | [6] -0.006 | [7] -0.192 | [9] 0.001 | tipifarnib 0.02 | mubritinib -0.162

NOTCH1 (UniProt P46531)
inactive: [1] 0.037 | nilotinib -0.03 | [5] -0.254 | [6] 0.158

NMRK1 (UniProt Q9NWW6)
inactive: duvelisib -0.094 | [3] 0.031 | dasatinib 0

NFKBIA (UniProt P25963)
inactive: [8] 0.076 | duvelisib 0 | gandotinib -0.218 | [3] 0.11 | [4] 0.061 | dasatinib 0.228

NOL8 (UniProt Q76FK4)
inactive: duvelisib -0.098 | gandotinib 0.029 | [3] -0.121 | [4] -0.381 | dasatinib 0.07 | tipifarnib 0.165

NOS1AP (UniProt O75052)
inactive: [1] 0.101 | [2] 0.237 | ispinesib -0.279 | bafetinib -0.052 | [7] 0.067 | [9] -0.179 | tipifarnib -0.037 | mubritinib 0.165

NOC4L (UniProt Q9BVI4)
inactive: gandotinib 0.033 | [4] -0.145 | nilotinib -0.014 | [5] -0.887 | [6] 0.089

NGDN (UniProt Q8NEJ9)
inactive: [8] -0.314 | [2] 0.204 | tozasertib -0.078 | ispinesib -0.361 | [7] -0.074 | [9] -0.011

NPC1L1 (UniProt Q9UHC9)
active: [6] -0.384
inactive: [8] 0.002 | crizotinib -0.07 | [2] -0.044 | [3] -0.159 | doramapimod 0.033 | bafetinib -0.05 | nilotinib 0.659 | [5] 0.52 | dasatinib -0.117 | [7] 0.012 | tipifarnib 0.094 | mubritinib 0.008

NOC3L (UniProt Q8WTT2)
inactive: [1] 0.14 | gandotinib -0.122 | bafetinib -0.125 | [4] -0.277 | nilotinib -0.044 | [5] 0.014 | [6] -0.004 | mubritinib 0.128

NIPSNAP3B (UniProt Q9BS92)
inactive: [8] 0.03 | crizotinib 0.053 | [2] 0.015 | gandotinib 0.082 | [3] 0.039 | doramapimod -0.102 | bafetinib -0.085 | [4] -0.054 | nilotinib -0.029 | [5] 0.01 | dasatinib -0.044 | [6] 0.013 | [7] 0.109 | tipifarnib -0.018 | mubritinib 0.083

NEU3 isoform 2 (UniProt Q9UQ49)
inactive: [8] 0.062 | tipifarnib 0.044

NME4 (UniProt O00746)
inactive: gandotinib -0.031 | ispinesib 0.042 | [4] -0.098 | [9] -0.122 | mubritinib -0.166

NSD1 (UniProt Q96L73)
inactive: [8] 0.054 | crizotinib 0.061 | duvelisib -0.019 | gandotinib 0.121 | [3] -0.064 | doramapimod -0.019 | bafetinib -0.013 | [4] -0.011 | nilotinib 0.037 | [5] 0.068 | dasatinib 0.185 | [6] 0.013 | mubritinib -0.013

NEO1 (UniProt Q92859)
inactive: tozasertib -0.097 | ispinesib 0.028 | nilotinib 0.013 | [5] -0.038 | [6] -0.116 | [9] 0.033 | mubritinib 0

NEURL4 (UniProt Q96JN8)
inactive: [8] -0.083 | [2] 0.25 | duvelisib -0.359 | [3] -0.441 | ispinesib -0.054 | bafetinib -0.094 | dasatinib 0.14 | [7] 0.154 | [9] -0.073

NOL4L (UniProt Q96MY1)
inactive: [8] 0.039 | [1] -0.064 | duvelisib 0.097 | tozasertib 0.061 | [3] -0.091 | nilotinib -0.126 | [5] -0.015 | dasatinib 0.036 | [6] -0.018

NOLC1 isoform 3 (UniProt Q14978)
inactive: [2] -0.305 | [7] -0.015

NRSN2 (UniProt Q9GZP1)
inactive: [8] 0.162 | [1] -0.028 | duvelisib 0.052 | tozasertib 0.001 | [3] 0.033 | dasatinib 0.052

NKTR (UniProt P30414)
inactive: bafetinib 1.06 | tipifarnib 0.163 | mubritinib 0.167

NRGN (UniProt Q92686)
inactive: crizotinib 0.241 | [1] 0.043 | doramapimod -0.282 | ispinesib 0 | bafetinib -0.199 | [4] -0.581 | nilotinib 0.004 | [5] -0.199 | [6] -0.088 | [9] 0.074 | tipifarnib -0.055
active: gandotinib 0.891

NMU (UniProt P48645)
inactive: crizotinib 0.025 | [1] -0.445 | [2] -0.026 | gandotinib -0.159 | [3] 0.127 | doramapimod -0.04 | ispinesib -0.186 | bafetinib -0.01 | [4] 0.152 | nilotinib 0.011 | [5] -0.022 | dasatinib 0.16 | [6] -0.012 | [7] -0.394 | [9] -0.11 | tipifarnib 0.276

Fetched one by one from above (2):
NME4 (UniProt O00746)
inactive: gandotinib -0.031 | ispinesib 0.042 | [4] -0.098 | [9] -0.122 | mubritinib -0.166

NOP10 (UniProt Q9NPE3)
inactive: crizotinib -0.144 | [2] 0.061 | duvelisib 0 | [3] -0.111 | doramapimod 0.009 | ispinesib -0.016 | bafetinib 0.079 | nilotinib 0.028 | [5] 0.02 | dasatinib 0.084 | [6] -0.006 | [7] -0.192 | [9] 0.001 | tipifarnib 0.02 | mubritinib -0.162

Remaining list, next part:

NFE2L1 (UniProt Q14494)
inactive: crizotinib -0.159 | [1] -0.071 | [2] 0.171 | gandotinib 0.134 | tozasertib 0.04 | doramapimod 0.042 | [4] -0.18 | [7] -0.113 | tipifarnib -0.023

NFATC1 (UniProt O95644)
inactive: [8] 0.065 | [1] -0.352 | tipifarnib 0.076 | mubritinib -0.164

NMNAT3 (UniProt Q96T66)
inactive: [8] 0.107 | [1] 0.145 | duvelisib 0.241 | [3] -0.086 | bafetinib 0.021 | dasatinib 0.057 | tipifarnib 0.085 | mubritinib -0.101

NFKB2 (UniProt Q00653)
inactive: crizotinib -0.042 | [1] -0.047 | [2] 0.218 | tozasertib 0.185 | doramapimod 0.037 | ispinesib -0.249 | bafetinib -0.139 | nilotinib 0.063 | [5] -0.232 | [6] -0.124 | [7] -0.024 | [9] -0.037 | tipifarnib 0.039 | mubritinib 0.015
